# Assay results: PubChem BioAssay AID493014 (National Center for Advancing Translational Sciences (NCATS), 2011)
# This is one part of the list. Further columns of the screen follow, without active or inactive calls. Compounds called inactive in the main read-out are mostly missing here. The note in brackets gives the kind of curve behind each potency; many fits are weak.
# Assay: qHTS Assay to Find Inhibitors of Chronic Active B-Cell Receptor Signaling
# Conditions: ABC-DLBCL IkBa-CBG/CBR reporter, luminescence ratio (green luciferase fused to IkBa over red control in TMD8 lymphoma cells), 4 h
# Outline: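 Cell line TMD8 (human ABC DLBCL), stably expressing tet-inducible CBG68-IkBa fusion and CBR; IMDM/0.5% FBS; cpd up to 46 uM; dox induction, 4 h, 37C/5% CO2; dual luminescence; green/red ratio; MG132 control.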
# [1] = measured here: CBR red luminescence, cell number
# [2] = measured here: IkBa-CBG green luminescence
SMILES,AC50 [1],AC50 [2]
CSc1nc2c(c(=O)[nH]1)C(c1ccccc1Cl)CC(=O)N2 (stereo unspecified),"3.55 µM [rising, partial curve, poor fit]",–
OCC1(CCCc2ccccc2)CCN(Cc2cnc(N3CCOCC3)s2)CC1,"5.62 µM [rising, single point]",–
CC(=O)Nc1ccc(S(=O)(=O)N2CCCN(S(=O)(=O)c3ccc(NC(C)=O)cc3)CC2)cc1,"2.06 µM [rising, full curve, poor fit]",–
CCOCCCNC(=O)C(NC(=O)c1ccc(NC(C)=O)cc1)c1ccc(OC)cc1 (stereo unspecified),"29.1 µM [rising, single point]",–
Cc1ccc(CS(=O)(=O)c2cn(CC(=O)N3CCOCC3)c3ccccc23)cc1,"3.98 µM [falling, single point]",–
COc1cc(C(=O)Nc2sc3c(c2C(=O)O)CCC(C)C3)cc(OC)c1OC (stereo unspecified),"5.62 µM [falling, partial curve]",–
O=C(C1=C[C@@H](C2CCCCC2)C[C@@H](OCCCCO)O1)N1CCN(Cc2ccccc2)CC1,"35.5 µM [falling, single point]",–
Cn1c(=O)c2c(nc(CN3CCC(C(N)=O)CC3)n2Cc2ccccc2Cl)n(C)c1=O,"15.8 µM [rising, partial curve]",–
O=C1CC(N2CCN(C3CC(=O)N(CCc4ccccc4)C3=O)CC2)C(=O)N1CCc1ccccc1 (stereo unspecified),"25.9 µM [rising, single point]",–
Cc1ccc(NC(=O)c2ccc([N+](=O)[O-])o2)cc1C,"35.5 µM [falling, single point]",–
O=C(C1CCCN(Cc2ccccc2[N+](=O)[O-])C1)N1CCCC1 (stereo unspecified),"15.8 µM [rising, single point]",–
CCN=C1S/C(=C\c2sccc2C)C(=O)N1CC,"1.46 µM [rising, partial curve]","16.4 µM [falling, partial curve, poor fit]"
CCc1c(C#N)c(SCCC(=O)Nc2cccc(OC)c2)nc2c1C(=O)CC(C)(C)C2,"14.6 µM [falling, single point]",–
COCc1ccc(-c2c(-c3cccc(OC)c3)sc3ccc(OC)cc23)cc1,"7.31 µM [rising, partial curve, poor fit]",–
CC(=O)Cc1nsc(NC(=O)c2cccs2)n1,"14.1 µM [falling, single point]",–
CCCNC(=O)c1nn2cc(Br)cnc2c1Br,"10 µM [rising, partial curve]",–
O=C(NNC(=O)c1cc(Cl)ccc1O)c1cccs1,"0.447 µM [falling, full curve]",–
CCCn1c(N)c(N(CCOC)C(=O)CSc2ccccc2)c(=O)[nH]c1=O,–,"32.6 µM [falling, partial curve, poor fit]"
COc1ccccc1N1CCN(C(=O)C2CCCN(S(=O)(=O)c3ccc4c(c3)oc(=O)n4C)C2)CC1 (stereo unspecified),"0.282 µM [falling, full curve, poor fit]",–
Cc1ccc2c(c1)N(CC(=O)OC(CC(C)C)C(=O)NC1CCCC1)C(=O)CO2 (stereo unspecified),"12.6 µM [falling, partial curve, poor fit]",–
Cc1cccc(N(CC(=O)NCc2ccc(F)cc2)C(=O)c2csnn2)c1C,"4.47 µM [falling, partial curve, poor fit]",–

# Structures shown so far containing sulfur:
SMILES,AC50 [1],AC50 [2]
CSc1nc2c(c(=O)[nH]1)C(c1ccccc1Cl)CC(=O)N2 (stereo unspecified),"3.55 µM [rising, partial curve, poor fit]",–
OCC1(CCCc2ccccc2)CCN(Cc2cnc(N3CCOCC3)s2)CC1,"5.62 µM [rising, single point]",–
CC(=O)Nc1ccc(S(=O)(=O)N2CCCN(S(=O)(=O)c3ccc(NC(C)=O)cc3)CC2)cc1,"2.06 µM [rising, full curve, poor fit]",–
Cc1ccc(CS(=O)(=O)c2cn(CC(=O)N3CCOCC3)c3ccccc23)cc1,"3.98 µM [falling, single point]",–
COc1cc(C(=O)Nc2sc3c(c2C(=O)O)CCC(C)C3)cc(OC)c1OC (stereo unspecified),"5.62 µM [falling, partial curve]",–
CCN=C1S/C(=C\c2sccc2C)C(=O)N1CC,"1.46 µM [rising, partial curve]","16.4 µM [falling, partial curve, poor fit]"
CCc1c(C#N)c(SCCC(=O)Nc2cccc(OC)c2)nc2c1C(=O)CC(C)(C)C2,"14.6 µM [falling, single point]",–
COCc1ccc(-c2c(-c3cccc(OC)c3)sc3ccc(OC)cc23)cc1,"7.31 µM [rising, partial curve, poor fit]",–
CC(=O)Cc1nsc(NC(=O)c2cccs2)n1,"14.1 µM [falling, single point]",–
O=C(NNC(=O)c1cc(Cl)ccc1O)c1cccs1,"0.447 µM [falling, full curve]",–
CCCn1c(N)c(N(CCOC)C(=O)CSc2ccccc2)c(=O)[nH]c1=O,–,"32.6 µM [falling, partial curve, poor fit]"
COc1ccccc1N1CCN(C(=O)C2CCCN(S(=O)(=O)c3ccc4c(c3)oc(=O)n4C)C2)CC1 (stereo unspecified),"0.282 µM [falling, full curve, poor fit]",–
Cc1cccc(N(CC(=O)NCc2ccc(F)cc2)C(=O)c2csnn2)c1C,"4.47 µM [falling, partial curve, poor fit]",–

# Later entries:

SMILES,AC50 [1],AC50 [2]
N#C/C(=N\Nc1ccc(Cl)c(Cl)c1)C(=O)C1CC1,"10 µM [falling, partial curve]",–
Cc1cc(C(=O)NC2CCCCC2)c(C)n1-c1ccc(F)cc1,"23.1 µM [falling, single point]",–
N/C(=N\OC(=O)C12CC3CC(CC(C3)C1)C2)c1ccncc1,"5.62 µM [rising, single point]",–
CCOC(=O)c1c(C)oc2ccc(OCc3cc(C(=O)OC)oc3C)cc12,"29.1 µM [falling, single point]",–
Cc1ccc(C(=O)N(C)CCOc2ccccc2)cc1S(=O)(=O)N1CCOCC1,"7.31 µM [rising, partial curve]","13 µM [falling, partial curve, poor fit]"
Cc1ccc2c(c1)Oc1ccc(NC(=O)CCCl)cc1C(=O)N2,"12.6 µM [rising, single point]","25.1 µM [falling, single point]"
COC(=O)c1ccc(NC(=O)C2CCCN(S(C)(=O)=O)C2)cc1 (stereo unspecified),"0.0891 µM [falling, full curve, poor fit]",–
CCCc1ccc2oc(C(=O)N3CCC(COC)C3)c(C)c2c1 (stereo unspecified),"7.94 µM [rising, partial curve, poor fit]",–
CSC1=NSC2=NC(=O)/C(=C/c3coc4ccc(O)cc4c3=O)C(=N)N12,"0.326 µM [rising, full curve, poor fit]",–
O=C1NCCCC1C(=O)N/N=C/c1ccccc1 (stereo unspecified),"18.4 µM [rising, partial curve, poor fit]",–
N/C(=N\OC(=O)c1ccc(Cl)c(Cl)c1)c1cccc(CSc2ccccn2)c1,"17.8 µM [rising, partial curve, poor fit]",–
COc1ccc(Oc2nc(-c3cccnc3)nc3ccccc23)cc1,"35.5 µM [rising, single point]","17.8 µM [falling, partial curve, poor fit]"
CCNc1nc(ON=C(C)C)nc(N(C)C)n1,"29.1 µM [rising, single point]",–
O=C(N/N=C/c1cccs1)c1cccc(S(=O)(=O)Nc2ccc(Cl)cc2)c1,"35.5 µM [rising, single point]",–
CC(=O)c1ccc(NC2OC(CO)C(O)C(O)C2O)cc1 (stereo unspecified),"35.5 µM [falling, single point]",–
CCCOc1cccc(-c2nc3ccccc3c(=O)o2)c1,"10 µM [falling, partial curve]",–
CCCOC(=O)c1ccc(NS(=O)(=O)c2cccs2)cc1,"2 µM [falling, partial curve, poor fit]",–
O=C(NNc1cccc(Cl)c1)c1cccnc1Oc1ccccc1,"1.26 µM [rising, partial curve]",–
CCOC(=O)c1cnc2nc(COc3ccccc3)[nH]n2c1=O,"0.184 µM [falling, full curve, poor fit]",–
COc1cc(C(=O)O/N=C2\C=CC(=O)C(C)=C2)cc(OC)c1OC,"3.55 µM [falling, partial curve]",–
O=C(NN=C1C2CC3CC(C2)CC1C3)c1ccncc1,"35.5 µM [falling, single point]",–

SMILES,AC50 [1],AC50 [2]
COc1ccc(NC(=O)C(C)N2C(=O)c3ccccc3S2(=O)=O)c(OC)c1 (stereo unspecified),"4.11 µM [falling, single point]",–
CC(C)Cc1cc(C(=O)N2CCN(C(c3ccccc3)c3ccccc3)CC2)no1,"35.5 µM [rising, partial curve, poor fit]",–
O=C(COc1cccc2ccccc12)NNC(=O)Nc1ccccc1,–,"35.5 µM [falling, single point]"
CCOC(=O)N1CCN(C(=O)CCCCCn2c(=S)[nH]c3cc4c(cc3c2=O)OCO4)CC1,"14.1 µM [falling, single point]",–
CC(NCCCOc1cccc2ccccc12)c1ccccc1 (stereo unspecified),"10 µM [falling, partial curve, poor fit]",–
COc1ccc(-c2nc(C(F)(F)F)c(OC)o2)cc1OC,"9.2 µM [rising, partial curve, poor fit]",–
O=C(Nc1ccc(S(=O)(=O)N2CCOCC2)cc1)c1cccc(Br)c1,"11.2 µM [rising, partial curve]",–
C/C(=N\NC(=O)c1cccc(Cl)c1)c1cccc(NC(=O)c2ccco2)c1,"29.1 µM [falling, single point]",–
O=C(CC1C(=O)NCCN1Cc1ccccc1C(F)(F)F)NCCn1cccn1 (stereo unspecified),"3.16 µM [rising, partial curve]",–
COc1cc(/C=N/NC(=S)NC2CC3C=CC2C3)cc(OC)c1OC (stereo unspecified),"14.1 µM [falling, single point]",–
Cc1cc(SCC(=O)N/N=C/c2ccc(O)cc2O)c(C)cc1Br,"1.03 µM [falling, full curve, poor fit]",–
COc1cc(CCC(=O)OCC(=O)NCCc2ccc(S(N)(=O)=O)cc2)cc(OC)c1OC,"9.2 µM [rising, single point]",–
COc1cccc(CNC(=O)COC(=O)CN(C)S(=O)(=O)c2ccc(NC(C)=O)cc2)c1,"22.4 µM [rising, single point]",–
CC(=O)Nc1ccc(NS(=O)(=O)c2cc3c4c(c2)CC(=O)N4CCC3)cc1,"0.562 µM [rising, full curve, poor fit]",–
C[C@H](CO)N1C[C@H](C)[C@@H](CN(C)C(=O)Nc2ccc(C(F)(F)F)cc2)Oc2c(NC(=O)Nc3ccccc3)cccc2C1=O,"29.1 µM [falling, single point]",–
CC(C)(C)Sc1ccc([N+](=O)[O-])cc1C(=O)Nc1ccncc1,"5.01 µM [rising, partial curve, poor fit]",–
Cc1ccc2[nH]c3c(=O)n(CCCN4CCN(C)CC4)cnc3c2c1,"6.51 µM [falling, single point]",–
S=C(NCC1CC1)N/N=C/c1ccccc1Cl,"35.5 µM [rising, single point]",–
Cc1c(C(=O)Oc2cc(N)n(S(C)(=O)=O)n2)cccc1[N+](=O)[O-],"35.5 µM [falling, single point]",–
COc1ccc(/C(N)=N/OC(=O)Cc2ccccc2OC)cc1,"3.55 µM [falling, partial curve, poor fit]",–
